Assay results: PubChem BioAssay AID2685 (National Center for Advancing Translational Sciences (NCATS), 2010)
The list shows a part of the results. These are further read-outs of the screen, such as a control signal, another cell line or another target. No call is given for them. The list favours compounds with an active or inconclusive main result. Potencies come from curve fits of mixed quality, noted in brackets.

Experiment: qHTS Assay for Lipid Storage Modulators in Drosophila S3 Cells;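 as to cell number change: cells counted by Cell Tracker Red CMTPX staining in the red channel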
Settings: BODIPY lipid droplet fluorescence, 18-24 h; for cell number change: measured here: cell count max response, cells fed with added oleic acid
Method in brief: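 Drosophila S3 cells got compounds at several concentrations plus oleic acid (400 uM solution). Laser-scanning cytometry with 488 nm excitation read lipid droplets at 500-530 nm and cells at 575-640 nm. Percent activity was relative to 20 uM Triacsin C.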

[1] = measured here: cell number channel AC50, cells fed with added oleic acid
[2] = measured here: lipid fluorescence (Fed channel) AC50, cells fed with added oleic acid

Compound	cell number change	AC50 [1]	AC50 [2]
O=C(CCCNS(=O)(=O)c1ccc(F)cc1)Nc1ccc(F)cc1	3.95%	–	–
CN(c1ccccc1)S(=O)(=O)c1ccc(Cl)c(C(=O)Nc2ccc(-c3nc4ccccc4[nH]3)cc2)c1	-21.3%	0.00517 µM [falling, full curve, poor fit]	16.4 µM [falling, partial curve]
Cn1cnnc1SCC(=O)Nc1ccc(S(=O)(=O)N2CCCC2)cc1	-22.6%	–	29.1 µM [falling, single point]
O=C(O)c1ccccc1Nc1cccc(OCc2ccc3ccccc3n2)c1	26.9%	–	8.2 µM [rising, partial curve]
Cc1cc(C(=O)COC(=O)c2ccncc2)c(C)n1CCc1ccc(F)cc1	28%	0.651 µM [rising, full curve]	1.3 µM [rising, full curve]
O=C(O)/C=C/C(=O)NC1CCS(=O)(=O)C1 (stereo unspecified)	-14.5%	–	6.51 µM [falling, single point]
O=C(CSc1nc2ccccc2[nH]1)Nc1ccc2c(c1)CCC2	-42.6%	29.1 µM [falling, single point]	29.1 µM [falling, single point]
Cc1[nH]c2ccc(F)cc2c1CCN1C(=O)OC(C)(C)C1(C)O (stereo unspecified)	-12.1%	–	1.46 µM [falling, partial curve, poor fit]
O=C1COc2ccc(C(=O)COC(=O)/C=C/c3ccc(Br)o3)cc2N1	–	–	3.66 µM [rising, single point]
CC(=O)n1c2ccccc2c2nc3ccccc3nc21	-30.7%	11.6 µM [falling, partial curve, poor fit]	6.51 µM [falling, single point]
CN(C)S(=O)(=O)c1ccc(Cl)c(C(=O)NNC(=O)Cc2nc3ccccc3n2C)c1	10.6%	–	2.91 µM [falling, single point]
O=C(Nc1nc2ccccc2[nH]1)C1CC(=O)N(c2ccc3c(c2)OCCO3)C1 (stereo unspecified)	-10.5%	–	4.11 µM [rising, single point]
COc1ccccc1NC(=O)Cc1nnc(SCC(=O)NC2=NCCS2)n1C	-10.5%	–	–
CCc1cc(C(=O)Nc2ccc(OC)nc2)sc1C	-14.8%	–	–
Cc1ccsc1C=C1C(=O)c2ccccc2C1=O	-6%	1.3 µM [rising, full curve]	–
COc1ccccc1NC(=O)C1=C(C)Nc2nnnn2C1c1cccc(Br)c1 (stereo unspecified)	-20.2%	–	18.4 µM [falling, single point]
COC(=O)c1ccc(CN(c2ccccc2Cl)S(C)(=O)=O)cc1	34.4%	6.51 µM [rising, single point]	–
CCOC(=O)c1csc(NC(=O)c2ccc(OCC)cc2)n1	58%	0.116 µM [rising, full curve, poor fit]	–
COc1ccccc1C(=O)NCC(=O)OCC(=O)c1cccc2ccccc12	6.02%	–	–
CC(Cn1cncn1)C(=O)N1CCN(S(=O)(=O)c2ccccc2)CC1 (stereo unspecified)	-3.85%	–	–

Compound	cell number change	AC50 [1]	AC50 [2]
CCOC(=O)c1cnc(-c2ccccc2)nc1Oc1cccc(Cl)c1	13.8%	–	14.6 µM [rising, partial curve]
COc1ccc(C(=O)NNC(=O)CSc2nnc(C(C)C)n2C)cc1	21.7%	–	0.116 µM [rising, single point]
COc1cccc(OC)c1C(=O)NNS(=O)(=O)c1ccc2ccccc2c1	8.5%	–	23.1 µM [falling, single point]
CCOc1ccccc1N1CN(Cc2ccccc2)CNC1=S	-19.5%	–	6.51 µM [rising, single point]
CCOc1ccc(S(=O)(=O)N2CCC(C(=O)NCc3cccnc3)CC2)cc1	35.5%	–	–
O=C(COC(=O)CNC(=O)c1ccccc1F)Nc1ccc2c(c1)OCO2	4.78%	–	–
COc1cccc(C(=O)Nc2c(C(N)=O)oc3ccccc23)c1	–	1.64 µM [rising, partial curve]	–
CC(=O)Nc1ccc(C(=O)OCC(=O)NC2CCCCCCC2)cc1	24.1%	0.0231 µM [rising, full curve, poor fit]	2.59 µM [rising, full curve, poor fit]
COC(=O)C(O)(CC(=O)Nc1ccc(OC(F)(F)F)cc1)C(F)(F)F (stereo unspecified)	-23.6%	–	0.116 µM [falling, full curve, poor fit]
CCOc1ccc(-n2c(-c3ccccc3)c[n+]3c2CCCCC3)cc1	-49%	8.2 µM [falling, partial curve]	6.51 µM [falling, full curve]
O=C(NS(=O)(=O)Oc1ccc(Cl)cc1)OC[C@@H]1CCCN2CCCC[C@H]12	-12.5%	0.651 µM [rising, full curve]	1.03 µM [rising, partial curve]
CCOc1ccc(C(=O)NCC(=O)Nc2ccncc2)cc1OCC	-17.5%	–	0.146 µM [rising, full curve, poor fit]
Cc1cc(F)ccc1NC(=O)C1CCCO1 (stereo unspecified)	-38.7%	–	–
O=C(Nc1ccccc1)c1cccc(N2C(=O)C3C4C=CC(C4)C3C2=O)c1 (stereo unspecified)	13.8%	5.8 µM [rising, partial curve, poor fit]	7.31 µM [falling, single point]
CC1C(=O)N(Cc2ccc(F)cc2)c2ccccc2N1C(=O)c1c(F)cccc1F (stereo unspecified)	-18.9%	–	29.1 µM [falling, single point]
COC(=O)[C@@H]1C[C@@]2(O)[C@@H](O)[C@@H](O)[C@@H](O)C[C@H]2N1CC1CCCCC1	12.6%	–	0.461 µM [rising, full curve]
COCCN(Cc1cc2cc(C)ccc2nc1Cl)C(=O)Nc1ccccc1C	19.1%	–	–
O=C(CN1C(=O)NC2(CCCCCC2)C1=O)N1CCN(c2ccc(F)cc2)CC1	-7.52%	–	–
O=C(/C=C/c1ccc(F)cc1)N1CCN(c2ccccn2)CC1	12.1%	–	0.0731 µM [falling, full curve, poor fit]
CC(NC(=O)NC1CCCCC1)C(c1cccs1)N1CCN(C)CC1 (stereo unspecified)	-27.6%	–	29.1 µM [falling, single point]

Some of the entries so far, bar-delimited.
Compound | cell number change | AC50 [1] | AC50 [2]
O=C(COC(=O)CNC(=O)c1ccccc1F)Nc1ccc2c(c1)OCO2 | 4.78% | – | –
COc1cccc(C(=O)Nc2c(C(N)=O)oc3ccccc23)c1 | – | 1.64 µM [rising, partial curve] | –
CC(=O)Nc1ccc(C(=O)OCC(=O)NC2CCCCCCC2)cc1 | 24.1% | 0.0231 µM [rising, full curve, poor fit] | 2.59 µM [rising, full curve, poor fit]
COC(=O)C(O)(CC(=O)Nc1ccc(OC(F)(F)F)cc1)C(F)(F)F (stereo unspecified) | -23.6% | – | 0.116 µM [falling, full curve, poor fit]
CCOc1ccc(-n2c(-c3ccccc3)c[n+]3c2CCCCC3)cc1 | -49% | 8.2 µM [falling, partial curve] | 6.51 µM [falling, full curve]
O=C(NS(=O)(=O)Oc1ccc(Cl)cc1)OC[C@@H]1CCCN2CCCC[C@H]12 | -12.5% | 0.651 µM [rising, full curve] | 1.03 µM [rising, partial curve]
CCOc1ccc(C(=O)NCC(=O)Nc2ccncc2)cc1OCC | -17.5% | – | 0.146 µM [rising, full curve, poor fit]
Cc1cc(F)ccc1NC(=O)C1CCCO1 (stereo unspecified) | -38.7% | – | –
O=C(Nc1ccccc1)c1cccc(N2C(=O)C3C4C=CC(C4)C3C2=O)c1 (stereo unspecified) | 13.8% | 5.8 µM [rising, partial curve, poor fit] | 7.31 µM [falling, single point]
CC1C(=O)N(Cc2ccc(F)cc2)c2ccccc2N1C(=O)c1c(F)cccc1F (stereo unspecified) | -18.9% | – | 29.1 µM [falling, single point]
